Assay results reported in patent US8377953B2, “Isothiazole and pyrazole derivatives as fungicides” (Syngenta Crop Protection LLC, priority 2007, dated 2013).
Some results were stated once for a whole list of compounds, not compound by compound.

Experiments:
Botrytis cinerea = Botrytis cinerea (Gray mould) growth inhibition in nutrient broth, microtiter plate; type: cell-based; settings: 20 ppm; PDB broth, 24° C., inhibition of growth determined photometrically after 72 hours
Septoria tritici = Septoria tritici (Leaf Blotch) growth inhibition in nutrient broth, microtiter plate; type: cell-based; settings: 20 ppm; PDB broth, 24° C., inhibition of growth determined photometrically after 72 hours
[1] = test system: Erysiphe graminis f.sp. tritici; assay: Erysiphe graminis f.sp. tritici (Wheat powdery mildew) leaf segment test, preventive; type: in vivo; settings: 200 ppm; barley leaf segments sprayed, preventive fungicidal activity assessed 7 dpi
Pyrenophora teres = Pyrenophora teres (Net blotch) barley leaf segment test, preventive; type: in vivo; settings: 200 ppm; barley leaf segments sprayed, preventive fungicidal activity assessed 4 dpi

OC(c1cccnc1)c1c(-c2cccs2)nsc1-c1ccc(Cl)cc1Cl (centres unmarked) [A63]
at least 80%: control of Botrytis cinerea (Botrytis cinerea) | control of Septoria tritici (Septoria tritici) | control of Erysiphe graminis [1] | control of Pyrenophora teres (Pyrenophora teres)

OC(c1cccnc1)c1c(-c2ccccc2F)nsc1-c1ccc(Cl)cc1Cl (centres unmarked) [A67]
at least 80%: control of Botrytis cinerea (Botrytis cinerea) | control of Septoria tritici (Septoria tritici) | control of Erysiphe graminis [1] | control of Pyrenophora teres (Pyrenophora teres)

OC(c1cccnc1)c1c(-c2cccs2)nsc1-c1ccc(Cl)cc1 (centres unmarked) [A44]
at least 80%: control of Botrytis cinerea (Botrytis cinerea) | control of Septoria tritici (Septoria tritici) | control of Erysiphe graminis [1]
